In the experiment the target is Flag-tagged PHD2 (with an HA-tagged copy of PHD2 in the co-immunoprecipitation) (human), Q9GZT9. The experiment in a line: co-IP; HA-tagged and Flag-tagged PHD2 co-transfected; cells treated with H2O2 (0.2 mM) or expressing H-ras V12; lysates on anti-Flag-conjugated beads 1 h, washed with 200 mM NaCl; blot for HA. Particulars: remark: other sources report otherwise.

No constants are given. Whether binding was seen depends on the method and setting. In cells and extracts the contact can be indirect. Some entries that bind do so weakly or less than the wild type. Sequences can lack the tags named with a protein.

B1: Flag-tagged PHD2 (with an HA-tagged copy of PHD2 in the co-immunoprecipitation), Q9GZT9 1-426 (natural protein)
chain: MANDSGGPGGPSPSERDRQYCELCGKMENLLRCSRCRSSFYCCKEHQRQDWKKHKLVCQGSEGALGHGVGPHQHSGPAPPAAVPPPRAGAREPRKAAARRDNASGDAAKGKVKAKPPADPAAAASPCRAAAGGQGSAVAAEAEPGKEEPPARSSLFQEKANLYPPSNTPGDALSPGGGLRPNGQTKPLPALKLALEYIVPCMNKHGICVVDDFLGKETGQQIGDEVRALHDTGKFTDGQLVSQKSDSSKDIRGDKITWIEGKEPGCETIGLLMSSMDDLIRHCNGKLGSYKINGRTKAMVACYPGNGTGYVRHVDNPNGDGRCVTCIYYLNKDWDAKVSGGILRIFPEGKAQFADIEPKFDRLLFFWSDRRNPHEVQPAYATRYAITVWYFDADERARAKVKYLTGEKGVRVELNKPSDSVGKDVF
For the molecule B1, the binding result was “binds”.

For the origin of these results see PMC4703963.
